From article PMC9280186 come the findings set out here.

Sequences of proteins named here, by UniProt entry; tags and fusion partners are left off. Residues count along the entry.
UniProt O00206, residues 24-631: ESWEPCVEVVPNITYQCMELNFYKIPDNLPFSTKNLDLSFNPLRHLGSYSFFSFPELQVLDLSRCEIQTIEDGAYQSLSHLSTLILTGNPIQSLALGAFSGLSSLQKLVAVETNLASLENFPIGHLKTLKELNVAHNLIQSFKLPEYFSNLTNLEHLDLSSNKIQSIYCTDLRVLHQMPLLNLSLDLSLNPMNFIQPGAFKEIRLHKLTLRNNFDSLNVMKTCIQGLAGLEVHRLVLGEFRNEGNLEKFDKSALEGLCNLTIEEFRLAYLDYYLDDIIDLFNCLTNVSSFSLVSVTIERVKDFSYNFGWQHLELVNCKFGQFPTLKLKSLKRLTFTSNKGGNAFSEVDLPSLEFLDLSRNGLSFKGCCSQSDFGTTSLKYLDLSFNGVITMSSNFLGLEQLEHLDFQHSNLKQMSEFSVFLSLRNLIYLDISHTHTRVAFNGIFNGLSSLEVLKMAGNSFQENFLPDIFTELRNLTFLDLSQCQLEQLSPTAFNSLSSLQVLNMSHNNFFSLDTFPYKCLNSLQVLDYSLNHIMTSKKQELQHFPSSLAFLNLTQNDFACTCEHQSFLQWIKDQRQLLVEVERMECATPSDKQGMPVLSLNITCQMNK

These are yes or no findings as the source states them, for the method shown. Some entries that bind do so weakly or less than the wild type.

The assay concerns the target TLR 4 (Peprotech) (UniProt O00206). In words: pull-down; TLR4 conjugated to 80 nm carboxyl silica nanospheres, blocked with Tris-HCl pH 8 and casein; incubated with Alt a 1 (0.1 ug/uL) for 2 h at room temperature; washed pellets analysed by SDS-PAGE and western blot with anti-Alt a 1 antibody; both purified.

B1: recombinant Alt a 1 (protein, UniProt P79085 26-157)
chain: DTASCPVTTEGDYVWKISEFYGRKPEGTYYNSLGFNIKATNGGTLDFTCSAQADKLEDHKWYSCGENSFMDFSFDSDRSGLLLKQKVSDDITYVATATLPNYCRAGGNGPKDFVCQGVADAYITLVTLPKSS
As to B1, the binding result is recorded as “binds”.
